Assay results: article PMC7045607
No constants are given. Whether binding was seen depends on the method and setting. Binding seen in cells or lysates may run through a third protein. Some binding calls cover weakened binding; strength is not graded here.

Chains of the proteins cited; added tags and fusions are not shown. Residues count along the entry.
UniProt P30405, residues 30-207: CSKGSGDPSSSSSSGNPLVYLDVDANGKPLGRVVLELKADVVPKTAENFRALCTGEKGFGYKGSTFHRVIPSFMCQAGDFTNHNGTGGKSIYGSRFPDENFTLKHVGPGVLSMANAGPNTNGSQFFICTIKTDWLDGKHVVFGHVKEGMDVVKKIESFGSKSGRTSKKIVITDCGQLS

Target: cyclophilin-D (human (endogenous in T-HESC)) (UniProt P30405)
Assay: co-IP; mitochondrial immunoprecipitation (Mito-IP): mitochondrial fraction lysates of T-HESC cells (300 ug per treatment), pre-cleared, incubated with anti-CypD antibody, captured by anti-IgG; CypD-bound ANT1 and p53 by Western blotting; cells after OGD 4 h and re-oxygenation (OGDR) or Mock, with lv-pre-miR-941, lv-miRC, antagomiR-941 or antaC

binding: binds
B1: adenine nucleotide translocator type 1 (protein, UniProt P12235 1-298)
chain: MGDHAWSFLKDFLAGGVAAAVSKTAVAPIERVKLLLQVQHASKQISAEKQYKGIIDCVVRIPKEQGFLSFWRGNLANVIRYFPTQALNFAFKDKYKQLFLGGVDRHKQFWRYFAGNLASGGAAGATSLCFVYPLDFARTRLAADVGKGAAQREFHGLGDCIIKIFKSDGLRGLYQGFNVSVQGIIIYRAAYFGVYDTAKGMLPDPKNVHIFVSWMIAQSVTAVAGLVSYPFDTVRRRMMMQSGRKGADIMYTGTVDCWRKIAKDEGAKAFFKGAWSNVLRGMGGAFVLVLYDEIKKYV
